Taken from: PubChem BioAssay AID1159578 (Peter MacCallum Cancer Centre, 2015)

Purpose: 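Genome-wide hunt for genes controlling movement of lymphatic endothelial cells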 (primary screen)
System: human lymphatic endothelial cells
Reagents: siRNA pool against human genes, 40 nM
Timing: 48 h after transfection
Measured: 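Cells stained with dye and imaged after a scratch; covered wound area and nuclei counted, duplicates averaged, migration set against mock wells and turned into a robust z-score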
Scale: migration robust z-score: higher = faster migration into the scratch; nuclei per well: higher = more cells in the well
Call rule: 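Migration changed when robust z exceeds 2 or falls below -2 and mean nuclei number is at least 3300; otherwise not called changed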
Calls: active = migration changed; inactive = no migration change, or too few cells
Here is an unselected part of about 18,000 reagents. Of all reagents, about 1,030 (5.7%) were called active. 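Inactive calls also include pools with fewer than 3300 nuclei, whose migration was not assessed.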 The raw values are shown without normalisation. A number with no mark means an inactive call. Not all columns of the deposit are shown. Reagent sequences are not shown.

MGAT5 | migration robust z-score = 1.38; migration class with cell-count check = migration z between -2 and 2; enough cells; nuclei per well, duplicate mean = 5256
LCN8 | migration robust z-score = -0.16; migration class with cell-count check = migration z between -2 and 2; enough cells; nuclei per well, duplicate mean = 4404
DRC11 | migration robust z-score = 0.62; migration class with cell-count check = migration z between -2 and 2; enough cells; nuclei per well, duplicate mean = 5964
EML1 | migration robust z-score = -0.16; migration class with cell-count check = migration z between -2 and 2; enough cells; nuclei per well, duplicate mean = 5572
TERT | migration robust z-score = 0.72; migration class with cell-count check = migration z between -2 and 2; enough cells; nuclei per well, duplicate mean = 6356
STRAP | migration robust z-score = 0.08; migration class with cell-count check = migration z between -2 and 2; enough cells; nuclei per well, duplicate mean = 5228
MATN4 | migration robust z-score = -1.03; migration class with cell-count check = migration z between -2 and 2; enough cells; nuclei per well, duplicate mean = 4914
APBA2 | migration robust z-score = 1.21; migration class with cell-count check = migration z between -2 and 2; enough cells; nuclei per well, duplicate mean = 5816
TNIP3 | migration robust z-score = -0.33; migration class with cell-count check = migration z between -2 and 2; enough cells; nuclei per well, duplicate mean = 5746

In a second layout: entries from further up
| gene | migration robust z-score | migration class with cell-count check | nuclei per well, duplicate mean |
| --- | --- | --- | --- |
| STRAP | 0.08 | migration z between -2 and 2; enough cells | 5228 |
| MATN4 | -1.03 | migration z between -2 and 2; enough cells | 4914 |

Continued:
ADIPOR1 | migration robust z-score = -0.68; migration class with cell-count check = migration z between -2 and 2; enough cells; nuclei per well, duplicate mean = 5981
LAMB2 | migration robust z-score = 0.57; migration class with cell-count check = migration z between -2 and 2; enough cells; nuclei per well, duplicate mean = 4931
CCAR2 | migration robust z-score = -0.19; migration class with cell-count check = migration z between -2 and 2; enough cells; nuclei per well, duplicate mean = 4804
EED | migration robust z-score = -0.73; migration class with cell-count check = migration z between -2 and 2; enough cells; nuclei per well, duplicate mean = 5159
OR2T27 | migration robust z-score = -0.48; migration class with cell-count check = migration z between -2 and 2; enough cells; nuclei per well, duplicate mean = 6461
APEX2 | migration robust z-score = 0.83; migration class with cell-count check = migration z between -2 and 2; enough cells; nuclei per well, duplicate mean = 4752
NCAPG2 | migration robust z-score = 0.18; migration class with cell-count check = migration z between -2 and 2; enough cells; nuclei per well, duplicate mean = 6057
ACTA2 | migration robust z-score = 0.71; migration class with cell-count check = migration z between -2 and 2; enough cells; nuclei per well, duplicate mean = 4712
PRKCB | migration robust z-score = -1.04; migration class with cell-count check = migration z between -2 and 2; enough cells; nuclei per well, duplicate mean = 5840
CA12 | migration robust z-score = 0.44; migration class with cell-count check = migration z between -2 and 2; enough cells; nuclei per well, duplicate mean = 5381
TAF1B | migration robust z-score = -0.24; migration class with cell-count check = migration z between -2 and 2; enough cells; nuclei per well, duplicate mean = 5486
NR6A1 | migration robust z-score = -0.88; migration class with cell-count check = migration z between -2 and 2; enough cells; nuclei per well, duplicate mean = 3678
